Reference: publication doi:10.1101/2021.02.23.432418
These are yes or no findings as the source states them, for the method shown. In cells and extracts the contact can be indirect. Sequences can lack the tags named with a protein.

Target: T1, porcine Gasdermin D residues 194-488 (pGSDMD-194-488) (porcine (cDNA of IPEC-J2 cells)) (UniProt F1SEV7)
T1 sequence: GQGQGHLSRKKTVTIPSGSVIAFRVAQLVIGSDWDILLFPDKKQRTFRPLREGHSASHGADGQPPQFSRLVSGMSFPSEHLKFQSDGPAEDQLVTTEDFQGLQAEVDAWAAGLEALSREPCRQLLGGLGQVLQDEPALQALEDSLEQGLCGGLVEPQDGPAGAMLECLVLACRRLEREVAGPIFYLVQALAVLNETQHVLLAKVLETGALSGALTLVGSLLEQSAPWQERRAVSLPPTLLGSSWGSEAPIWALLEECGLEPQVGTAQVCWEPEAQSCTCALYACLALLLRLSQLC
Test: co-IP

B1: porcine caspase-1 (HA-caspase-1) (enzyme, UniProt Q9N2I1 1-404)
chain: MADKVLKEKRRLFVRSVAMGTINGLLDELLETRVLNQEEVEIVRGENATVMDKARALIDSVIRKGPQACQICINHICGDDPHLAGVLELSTGSQSGKCLTVQESQAVVPPFPAPQTVQDNPVKPASSEPRGSLKLCPPDIAQRLWKEKSAEIYPIMGKSIRTRLALIICNTEFENLPRRDGADVDIRDMKILLEDLGYSVDVRENLTASDMAIELKAFAARPEHKSSDSTFLVLMSHGIQAGICGKKYSEEVPDVLEVNTVFQILNTLNCPSLKDKPKVIIIQACRGEKQGVVWIKDSVGPSGNSSLLAAEDFEYDAIKKAHIEKDFIAFCSSTPDNVSWRHPLLGSLFIIKLIKILQEHAWSCGLEEIFRKVRFSFELADGRAQMPTAERVTLTRSFYLFPGH
B1 was tested, and the binding was “no binding”.
